10 molecules from patent US10780090B2, “Heteroaryl compounds useful as inhibitors of SUMO activating enzyme” (Millennium Pharmaceuticals, Inc., priority 2014, dated 2020) can be followed below.

Sequences of proteins named here, by UniProt entry; tags and fusion partners are left off.
UniProt Q9UBT2, whole entry: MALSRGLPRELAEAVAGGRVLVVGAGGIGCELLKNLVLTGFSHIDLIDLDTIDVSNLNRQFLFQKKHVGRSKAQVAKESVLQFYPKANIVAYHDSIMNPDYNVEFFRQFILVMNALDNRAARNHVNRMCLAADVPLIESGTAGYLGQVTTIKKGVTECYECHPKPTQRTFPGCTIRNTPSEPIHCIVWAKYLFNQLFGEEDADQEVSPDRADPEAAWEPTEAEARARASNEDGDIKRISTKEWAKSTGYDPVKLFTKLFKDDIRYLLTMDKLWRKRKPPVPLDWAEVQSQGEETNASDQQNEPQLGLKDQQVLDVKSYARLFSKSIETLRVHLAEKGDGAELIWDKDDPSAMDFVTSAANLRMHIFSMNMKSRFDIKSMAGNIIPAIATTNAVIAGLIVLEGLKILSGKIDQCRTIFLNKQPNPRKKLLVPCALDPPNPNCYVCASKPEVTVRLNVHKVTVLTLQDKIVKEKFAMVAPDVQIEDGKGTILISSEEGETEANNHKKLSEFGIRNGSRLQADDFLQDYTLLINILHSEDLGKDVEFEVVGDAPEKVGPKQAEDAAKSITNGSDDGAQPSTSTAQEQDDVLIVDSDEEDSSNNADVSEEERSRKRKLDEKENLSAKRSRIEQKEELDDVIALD
UniProt Q9UBE0, whole entry partner: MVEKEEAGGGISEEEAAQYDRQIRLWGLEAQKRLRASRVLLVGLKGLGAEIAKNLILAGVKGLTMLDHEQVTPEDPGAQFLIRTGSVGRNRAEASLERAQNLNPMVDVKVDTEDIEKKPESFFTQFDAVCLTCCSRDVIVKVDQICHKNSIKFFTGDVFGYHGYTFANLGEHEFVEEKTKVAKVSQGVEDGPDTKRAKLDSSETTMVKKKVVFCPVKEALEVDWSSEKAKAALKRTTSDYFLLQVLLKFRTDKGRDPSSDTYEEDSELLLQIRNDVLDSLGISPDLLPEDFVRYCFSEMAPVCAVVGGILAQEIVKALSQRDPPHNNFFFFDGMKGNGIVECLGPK

For the test, the target named is recombinant human SAE enzyme (Homo sapiens (Human), UniProt Q9UBT2). Kind of test: SAE HTRF enzyme assay. It counts as biochemical. The note with it: for pIC50: class symbols A/B/C; for IC50: SAE inhibition, class symbols, legend in nM.
Where [1] appears, read: SAE inhibition at compound concentration 0.111 μM.

pIC50: −log10 of the molar value. The structures given here were assigned with low confidence; some may be wrong.

Regarding `NC(c1cccc(Br)n1)c1cc(C(=O)c2cncnc2N[C@@H]2C[C@H](COS(N)(=O)=O)[C@@H](O)[C@H]2O)sc1Cl` (single isomer, unassigned), the pIC50 is above 8.00. Also, the Percent Inhibition (Concentration 0.111 μM) was 99%.
With `CN1Cc2ccccc2C1c1cc(C(=O)c2cncnc2NC2CC(O)C(COS(N)(=O)=O)C2)sc1Cl` (stereo not shown), under setting [1], the “Percent Inhibition” value is given as 97%.
For `NS(=O)(=O)OC[C@H]1C[C@@H](Nc2ncncc2C(=O)c2cc(C3(c4cccc(Cl)c4)CCCN3)cs2)[C@H](O)[C@@H]1O` (stereo partly shown), the pIC50 was above 8.00. Besides, the Percent Inhibition (Concentration 0.111 μM) was found to be 98%.
As for `NS(=O)(=O)OC[C@H]1C[C@@H](Nc2ncncc2C(=O)c2cc(C3CCCc4ccc(Cl)cc43)cs2)C[C@@H]1O` (single isomer, unassigned), the IC50 fell in the range of 100 to 1000 nM. Besides, the “Percent Inhibition” value under setting [1] was found to be 38%.
Turning to `Cc1nc2c(s1)C(c1cc(C(=O)c3cncnc3N[C@@H]3C[C@H](COS(N)(=O)=O)[C@@H](O)C3)sc1C)OCC2` (single isomer, unassigned), the IC50 is below 10 nM. The “Percent Inhibition” value under setting [1] is 96%.
Taken in the same sequence, the figures for `NS(=O)(=O)OC[C@H]1C[C@@H](Nc2ncncc2C(=O)c2cc(C3OCCc4ccc(Cl)cc43)c(CO)s2)C[C@@H]1O` (stereo partly shown) were below 10 nM and 100%.
In the case of `Cc1sc(C(=O)c2cncnc2N[C@@H]2C[C@H](COS(N)(=O)=O)[C@@H](O)C2)nc1C(O)c1cccc(Cl)c1` (single isomer, unassigned), the 50% inhibitory concentration (IC50) is below 10 nM. For the same molecule, the “Percent Inhibition” value under setting [1] is given as 96%.
As to `COCc1sc(C(=O)c2cncnc2N[C@@H]2C[C@H](COS(N)(=O)=O)[C@@H](O)C2)cc1C(O)c1cccc(Cl)c1` (single isomer, unassigned), the pIC50 was above 8.00. Also, the Percent Inhibition (Concentration 0.111 μM) came to 98%.
The corresponding values for `Cc1sc(C(=O)c2cncnc2N[C@@H]2C[C@H](COS(N)(=O)=O)[C@@H](O)[C@H]2O)cc1C1OCCc2ccccc21` (single isomer, unassigned) are above 8.00 and 101%.
Turning to `NS(=O)(=O)OC[C@H]1C[C@@H](Nc2ncncc2C(=O)c2cc(C(O)c3cccc(Cl)n3)c(Cl)s2)C[C@@H]1O` (single isomer, unassigned), the pIC50 is above 8.00. For the same molecule, where the note is “Concentration 0.111 μM”, the Percent Inhibition was 100%.

Broadly, the pIC50 is the IC50 on a negative log10 scale, so that one unit is a factor of ten. For orientation: IC50 means the midpoint of a concentration-inhibition curve.
